# Most values lie at the floor of the assay. Slopes are relative: functional sequences can read slightly below zero.
# System: Saccharomyces cerevisiae PS128 hsf1 delta, HSF1(1-493) fusion
# Assay: growth estimate (transactivation domain function in HSF1 fusion, heat-shock survival) (a.u. (slope of normalised read count over time)); higher = stronger growth at 37°C, i.e. more transactivation activity
# Conditions: library: random library
row,Substance,growth estimate
1,WLGRHVTAVQGKLFASPTGI,< -0.25
2,WLGSPVLGPRDEQRSCPYEV,-0.173
3,WLNPAGGVPIDQFSLRFIIT,< -0.25
4,WLRILTGRK,< -0.25
5,WLRLSRRATCML,< -0.25
6,WLRLTMLHPVSY,-0.0136
7,WLRPLTSTIVSLYLRAGRYP,< -0.25
8,WLRVAH,< -0.25
9,WLRVWLPSKNERAFAR,< -0.25
10,WLSPRGPAPGE,< -0.25
11,WLVVLDRRQSRDERVFRAHL,-0.197
12,WLWSVVA,< -0.25
13,WLYGVSHIKTGPLAFHVPSC,< -0.25
14,WMAKLKARQGPTLFIHGIFG,-0.248
15,WMARVSAMSTEQALSTCWKS,< -0.25
16,WMCRCSRSSAACDLQHPR,< -0.25
17,WMLARATEVFPGDAVSGFI,< -0.25
18,WMRSTHHSCMNPPASVISDD,< -0.25
19,WMWIACSCVRRVPLCRTMSA,< -0.25
20,WNCKRGKKARQHPGFVTEHG,< -0.25
21,WNECLTDEIVCQEEHGTVRA,< -0.25
22,WNELTERTFPGTEGE,< -0.25
23,WNGQARPRLRL,< -0.25
24,WNHICSEGGAVLLSV,< -0.25
25,WNLCLRHGTQNCIGPCLANG,< -0.25

row,Substance,growth estimate
1,WNMEPPSLYGRAASPRP,< -0.25
2,WNPAVDC,< -0.25
3,WPAATQVHVRTNL,< -0.25
4,WPGD,< -0.25
5,WPGKEILSGRGNSRSSRLAS,< -0.25
6,WPNRS,< -0.25
7,WPPERSWG,-0.203
8,WPPRKVRLIQP,< -0.25
9,WPRY,< -0.25
10,WPTLDLLFGLWFGNRRKVAD,< -0.25
11,WPVGFAPHGLIDSE,< -0.25
12,WQATAAFF,0.465
13,WQCLITDSYRSGFVLSLLSP,< -0.25
14,WQFAVSSYSELAGPYRVISL,< -0.25
15,WQIRGYLWRSPRVTRTYL,< -0.25
16,WQQLVWSGQKLTISVTRWSL,< -0.25
17,WQTVTPRHVFTAVRHMYSR,< -0.25
18,WQVTGNGKWRPLKRQRSHPA,< -0.25
19,WRCQ,< -0.25
20,WRDSYVRVPHYINSVLDAQR,< -0.25
21,WRDVCSFRNYSHGTLRLSSI,< -0.25
22,WRGLHAG,< -0.25
23,WRGVAIGCQFTSVGASGCGG,< -0.25
24,WRKGLIPNPGQASMGASVTP,< -0.25
25,WRKIYFDLMEGMFGYIFPGK,< -0.25

row,Substance,growth estimate
1,WRLTHIGSGDEILLCAYMDL,< -0.25
2,WRLVNQDTHP,< -0.25
3,WRSCLKELDPVHEISNVQIR,< -0.25
4,WRSSS,< -0.25
5,WRSVETYGRNRAAATTVQHS,< -0.25
6,WRVGSGI,< -0.25
7,WSDSRALGVGRVGNEILTQG,-0.246
8,WSGKRVVGRLRMVKQGGRKP,< -0.25
9,WSHRAAREPEIAPTLLATCP,< -0.25
10,WSLGCLRPTGLQ,< -0.25
11,WSMPAKFEERVREVQTAVVV,< -0.25
12,WSNESRTSGRVK,-0.25
13,WSNFSVVKKGGRAESADVDP,< -0.25
14,WSQRVYKLHNPQRVRSISVR,< -0.25
15,WSREQWTLLQA,< -0.25
16,WSRSLDSSKGFPACFVYSTS,< -0.25
17,WSSPNVSRGHRLSPCGSTNC,< -0.25
18,WSSRARQRGLSAYTILEELA,< -0.25
19,WSSSALYSCCRVLRLRPIDV,< -0.25
20,WSTNSTPGTHPLVS,< -0.25
21,WSVVYDVGERDLGSPGSYSA,< -0.25
22,WTENQHFRTYKGVSDSTNVL,< -0.25
23,WTGATVATRDDLVLGLSAHV,< -0.25
24,WTGLWGSGC,< -0.25
25,WTGMYSAPREGRALKMAE,< -0.25

row,Substance,growth estimate
1,WTGREMSSWCVVYWPNRQVS,< -0.25
2,WTGTAEIGVRLGLKIYSGGS,< -0.25
3,WTGTLSIIPRLTWDEGR,< -0.25
4,WTIHAIQRVWINYEGRICQG,< -0.25
5,WTIRVYMRLIF,< -0.25
6,WTLELLDQTDLICATQDSSY,-0.146
7,WTLLFYTYSHRREQVLYGDV,< -0.25
8,WTQHGCEPGSYRNLRGVTTD,< -0.25
9,WTVKFL,< -0.25
10,WVALQLVWRGL,< -0.25
11,WVEWVCQSLGYVKRFCRDLS,-0.243
12,WVFCSKPIRSLVVEAICHDG,< -0.25
13,WVGGKHVSPKYLSSGSSAMF,< -0.25
14,WVGSPGDVQHHDAEM,< -0.25
15,WVHPSGFGRRMGDSKVVRRS,< -0.25
16,WVLRGVHSRFSPIH,< -0.25
17,WVPLARNEVGAYGIRRKGRS,< -0.25
18,WVQRLRSVAPMVRSVWPGRA,-0.246
19,WVRSKPNHGYWRSFA,< -0.25
20,WVRWGEYPPDVWSIV,< -0.25
21,WVSELESPSTQVRAKCP,< -0.25
22,WVSG,-0.231
23,WVYLGQRVWVQRKELVSPKP,< -0.25
24,WWCELSPPSLRDLG,< -0.25
25,WWPCG,< -0.25

row,Substance,growth estimate
1,WWSLLFSDL,< -0.25
2,WWVYNSGCRRFSCMHLGPN,< -0.25
3,WWWGADLLWGSERELENAIC,< -0.25
4,WWWKVLADYFGVAGTTDTKG,< -0.25
5,WYAVVRYPAQFERN,< -0.25
6,WYCRAARGETVLASYLARMR,< -0.25
7,WYEGKVPTELPT,< -0.25
8,WYF,< -0.25
9,WYGPSAT,< -0.25
10,WYPGIDDSSPPLDRARQTPP,< -0.25
11,WYVKNMYVQPRMSRVW,< -0.25
12,WYWADSCFHRETPGYQQQVG,< -0.25
13,YAARFWGSV,< -0.25
14,YADDGTFSNLVRPEATRSLR,-0.246
15,YADVLHEVPSKCFPGSWAGE,< -0.25
16,YAERT,< -0.25
17,YAFCVRSCRGTCLKFFRTAA,< -0.25
18,YAFG,< -0.25
19,YAG,-0.0464
20,YAGRVSPLGVNHPCGGYDGE,< -0.25
21,YAIIIRSYHVPTRWLQ,< -0.25
22,YAKCY,< -0.25
23,YALQGWEGRLLPYVDEGSLG,< -0.25
24,YALRINAIVPVLNTQYFQDH,< -0.25
25,YAQEHMRDAHLVSHVKHYAK,< -0.25

# Rewritten tab-delimited: entries from further up.
row	Substance	growth estimate
9	WSHRAAREPEIAPTLLATCP	< -0.25
10	WSLGCLRPTGLQ	< -0.25
11	WSMPAKFEERVREVQTAVVV	< -0.25
12	WSNESRTSGRVK	-0.25
13	WSNFSVVKKGGRAESADVDP	< -0.25
14	WSQRVYKLHNPQRVRSISVR	< -0.25

# (next part)

row,Substance,growth estimate
1,YARASSVITYWGLRVPDGFG,< -0.25
2,YASPHPSCTLFTLVPMVESA,< -0.25
3,YASRGHVLLSLVLLKNRAIV,< -0.25
4,YASSTAS,< -0.25
5,YAVE,< -0.25
6,YAVGMPRFAHVTVSHSGKKT,< -0.25
7,YAVMLDCK,< -0.25
8,YCCAFGLVAS,< -0.25
9,YCD,< -0.25
10,YCEGLGTVLLFASAHP,< -0.25
11,YCEMGVLVETSAPPIRSVLL,< -0.25
12,YCKRAKW,< -0.25
13,YCQRRVG,< -0.25
14,YCRR,< -0.25
15,YCSTLQRLLNSERQGLRHPY,< -0.25
16,YCVASTIDQYEGE,< -0.25
17,YCVLEKPIGSPTARASTGEH,< -0.25
18,YCVPPLLVRMC,< -0.25
19,YDERRRCISTLNAELYIECP,< -0.25
20,YDIEERGRINFLVHLYYYGA,< -0.25
21,YDL,< -0.25
22,YDRLRIVLGFYGYTNKHVGQ,< -0.25
23,YDSFPL,< -0.25
24,YDT,< -0.25
25,YDTGGSSLGPRFAC,< -0.25

row,Substance,growth estimate
1,YDTLSRGLLPGHELNGLMRR,< -0.25
2,YDTVQT,< -0.25
3,YEEEEPLQWAAKGIG,< -0.25
4,YEGNFIGVIDDLGS,< -0.25
5,YEHKYWRDYC,< -0.25
6,YEKLRVKPVFPARVFLSENR,< -0.25
7,YELLSLRSRTSRPPTI,-0.243
8,YENYVFPSFTGEASAENLPA,< -0.25
9,YERGRLISGISRGP,< -0.25
10,YERSFIDKLVG,< -0.25
11,YEV,< -0.25
12,YEYRSLSELQQVFVFSVPMR,< -0.25
13,YFLHWSGFHLG,< -0.25
14,YFQGKPHTRK,-0.243
15,YFRGNRFALRASYGGSARWP,< -0.25
16,YFV,< -0.25
17,YGCMPNVCPQLRTSQ,< -0.25
18,YGEAGPGDRCANGHTQTMAP,< -0.25
19,YGEDGNREATSGAASCSASD,< -0.25
20,YGEHYDLLRERVRMVSENVG,< -0.25
21,YGFRLYLVCKRCAACLSGSV,< -0.25
22,YGFVGVTSRCLGAKRLLIHA,< -0.25
23,YGGGGLKATWPMELRLIR,< -0.25
24,YGGPLDLRFWFGEVSRVCFS,< -0.25
25,YGHGQGEAVGGDCVGR,< -0.25

row,Substance,growth estimate
1,YGHHFPSVFSDCLGRPNREC,< -0.25
2,YGIA,< -0.25
3,YGINSPEGNIYFFWSFRA,-0.231
4,YGKVCRWESRHFEWFGKARC,< -0.25
5,YGLGAVRS,-0.245
6,YGLSGIGNSTRRLGGPITTR,< -0.25
7,YGLSGSCWWLSGGQERQSVR,< -0.25
8,YGMPFKSPVSS,< -0.25
9,YGNFCLWREHMQTGLLEYL,< -0.25
10,YGQVSLESIGRGLAKR,< -0.25
11,YGRACYAGLRRERPT,< -0.25
12,YGRQILITVGISQQTD,< -0.25
13,YGRRSVPEVQVAGT,< -0.25
14,YGRSHQRESCSTWWRWHLPS,< -0.25
15,YGSEIARAVGPPRHSGK,< -0.25
16,YGSLCCSAPSDSKYGSSG,< -0.25
17,YGSLLSESRTLYASGTTCAP,< -0.25
18,YGTGILILVNECSF,< -0.25
19,YGTGSQRLA,< -0.25
20,YGTHHSHKSVY,< -0.25

# Nothing new here: entries from further up.
row,Substance,growth estimate
15,YGSEIARAVGPPRHSGK,< -0.25
16,YGSLCCSAPSDSKYGSSG,< -0.25
17,YGSLLSESRTLYASGTTCAP,< -0.25
18,YGTGILILVNECSF,< -0.25

# Reference: the supplement of paper PMC5949888
